Measured values reported in publication PMC7819943, “Rice protein-binding microarrays: a tool to detect cis-acting elements near promoter regions in rice”.
This is one part of the list.

The chains behind the UniProt entries cited, without tags or fusion partners.
UniProt Q0JBA9, entry or part of it: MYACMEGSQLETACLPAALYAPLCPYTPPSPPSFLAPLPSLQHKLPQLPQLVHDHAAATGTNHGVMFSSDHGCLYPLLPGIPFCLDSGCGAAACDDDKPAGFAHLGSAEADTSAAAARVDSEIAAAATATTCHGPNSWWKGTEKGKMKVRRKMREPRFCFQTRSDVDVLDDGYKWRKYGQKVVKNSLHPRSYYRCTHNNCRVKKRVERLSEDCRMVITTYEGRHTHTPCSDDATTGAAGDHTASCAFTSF

Molecular target: OsWRKY34 (Oryza sativa, UniProt Q0JBA9 1-250)
Assay: protein-binding microarray (RPBM); PBS, 2% BSA, 51.3 ng/ul salmon testes DNA, 50 uM zinc acetate, 200 nM TF, 25 C, 1 h; high values mean tight binding
Conditions: protein: recombinant; tags: N-terminal polyhistidine and DsRed monomer fusion (pET32a); label: CyDye5-dUTP incorporated in the synthesized complementary strand; 3' TTTTT single-stranded linker to array surface; dsDNA, one strand shown
Outline: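 Transcription factors, each fused N-terminally to a polyhistidine tag and DsRed, were expressed in E. coli BL21-CodonPlus and purified on Ni–NTA. A custom Agilent array was made double-stranded by primer extension with Cy5-dUTP and blocked with 2% BSA. It was incubated with 200 nM protein in PBS, 2% BSA, salmon testes DNA and 50 µM zinc acetate at 25 °C for 1 h, then washed. The binding signal is per-feature fluorescence intensity (arbitrary units) read on an Axon 4000B scanner.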

How did the binding signal turn out when “GTGGCTTGGCGTGGTAGTGTGGGTATGAGTGGATTCACCTCGGAGTCACCTAGTGCAG” was run?
Its binding signal is 8380 fluorescence intensity (a.u.).

“AGCCTGGAAGCCCATTCAGCGGCGGGGTTGGGGCGGCAGGCGGAGTCACCTAGTGCAG” was tested. Which binding signal did it give?
The binding signal was 10200 fluorescence intensity (a.u.).

For “CATACCCTGCATTCCTTAAATATCATTAGTGCATTTCATGCGGAGTCACCTAGTGCAG”, which binding signal is on record?
The binding signal was 9360 fluorescence intensity (a.u.).

For “GCCTCGCGTCGATCTCCTTGGCGCCACCACCGACCCCGCGCGGAGTCACCTAGTGCAG”, which binding signal is on record?
Its binding signal is 9750 fluorescence intensity (a.u.).

“CATATACACACACTCCTCGACTCCTTGGCCCTTTATATACCGGAGTCACCTAGTGCAG” was tested. Which binding signal did it give?
The binding signal was 10400 fluorescence intensity (a.u.).

For “TTTCTTTTCTTTTTTCTTTTTTTTTTTGCAATCTCCCTCGCGGAGTCACCTAGTGCAG”, which binding signal is on record?
The binding signal was 9680 fluorescence intensity (a.u.).

With “AAAAGCCCACCACCACCCAACCCGCCCAACGCCACGTCACCGGAGTCACCTAGTGCAG” as the sequence, how does the binding signal read?
Its binding signal is 9230 fluorescence intensity (a.u.).

“CAACCGGTACTTTCTCCTTCTCGTCGATGATTACAGCTGTCGGAGTCACCTAGTGCAG” was tested. Which binding signal did it give?
The binding signal was 9320 fluorescence intensity (a.u.).

For “CCGAGTTTTTTTTTTCCATTCTTTCTGCTCGCATCAGTCTCGGAGTCACCTAGTGCAG”, which binding signal is on record?
The binding signal was 8160 fluorescence intensity (a.u.).

How did the binding signal turn out when “GGTGGTGGTGGTGGACTGGTGGTGATGGTGGCGTCGCTGGCGGAGTCACCTAGTGCAG” was run?
The binding signal was 10600 fluorescence intensity (a.u.).

“CCTACACACATAAACTTCTAACTTTTCTGTCACATCGTTCCGGAGTCACCTAGTGCAG” was tested. Which binding signal did it give?
Its binding signal is 8470 fluorescence intensity (a.u.).

How did the binding signal turn out when “GTTACTCATATGTTTGGGCGTTGGCTTTCATGTGTTCCTACGGAGTCACCTAGTGCAG” was run?
Its binding signal is 8470 fluorescence intensity (a.u.).

Which binding signal does the source give for “CGGCCAATCTCCTGTGCACTTTTGACTTTCCATTTTGCCACGGAGTCACCTAGTGCAG” here?
The binding signal was 14900 fluorescence intensity (a.u.).

How did the binding signal turn out when “ATCCACGCATTAGGTTTTTTTGGATCGAGGGGAAGGGAGCCGGAGTCACCTAGTGCAG” was run?
Its binding signal is 9490 fluorescence intensity (a.u.).

Which binding signal does the source give for “TTCTTCATCATCTTCATCGTCTTCTTCTCGACTACTCAATCGGAGTCACCTAGTGCAG” here?
Its binding signal is 11300 fluorescence intensity (a.u.).

With “GGCGGGCGGGCGGGCGATCGATTCGGCGAGCGCTTGCGCACGGAGTCACCTAGTGCAG” as the sequence, how does the binding signal read?
The binding signal was 10700 fluorescence intensity (a.u.).

How did the binding signal turn out when “CACGCCTCGCCCATTGGGATTCGCCGCCCTCACCGCGAGCCGGAGTCACCTAGTGCAG” was run?
Its binding signal is 8330 fluorescence intensity (a.u.).

With “GTTCTTTTTTCTATTATTATTCAACTAGCCGTTGAGTTAACGGAGTCACCTAGTGCAG” as the sequence, how does the binding signal read?
Its binding signal is 8200 fluorescence intensity (a.u.).

With “TTACTATTTCGCATTTTTTTTTCTTATTTGCAAGTATACTCGGAGTCACCTAGTGCAG” as the sequence, how does the binding signal read?
The binding signal was 10100 fluorescence intensity (a.u.).

For “TCCAGTTTTCTTGTGGAAGTTTTTTTCCTAAGGCATACATCGGAGTCACCTAGTGCAG”, which binding signal is on record?
Its binding signal is 8120 fluorescence intensity (a.u.).

Which binding signal does the source give for “GTGTGTGATGGGTTAATCGATGTGCTATGTTATTGGTTTCCGGAGTCACCTAGTGCAG” here?
The binding signal was 8770 fluorescence intensity (a.u.).

“CTTCCTTTCCAATAGCATTCCCTTTGCCTCGCCATCCTGCCGGAGTCACCTAGTGCAG” was tested. Which binding signal did it give?
Its binding signal is 10100 fluorescence intensity (a.u.).

Which binding signal does the source give for “TTAACCAATCATAAACTCTCCACGTTCACTTCTACCTACTCGGAGTCACCTAGTGCAG” here?
Its binding signal is 8300 fluorescence intensity (a.u.).

With “GTCAACCGCCTACAGTCCGCGCGAATCTGCAACCCAAATCCGGAGTCACCTAGTGCAG” as the sequence, how does the binding signal read?
Its binding signal is 9580 fluorescence intensity (a.u.).

With “AATAAATATATGTGCCCTGCTTCTCACTGTTCCATTATCACGGAGTCACCTAGTGCAG” as the sequence, how does the binding signal read?
The binding signal was 9810 fluorescence intensity (a.u.).

How did the binding signal turn out when “GAACGCATATGAATTATATATATCGATTTTTGCATAACTACGGAGTCACCTAGTGCAG” was run?
Its binding signal is 8670 fluorescence intensity (a.u.).

Which binding signal does the source give for “TGAGCTCTGCCAATCGAAGTTTCTGCTGCCACCATTGTCACGGAGTCACCTAGTGCAG” here?
Its binding signal is 10200 fluorescence intensity (a.u.).

“GCTGGCGCCGGAGAGAGAGAGTGGGTTGGTTGTAATAAATCGGAGTCACCTAGTGCAG” was tested. Which binding signal did it give?
Its binding signal is 9290 fluorescence intensity (a.u.).

For “ATAGTTGGTTTCCCGTTCTTTCCACTCCCGTCATGGACTACGGAGTCACCTAGTGCAG”, which binding signal is on record?
Its binding signal is 9520 ± 525 fluorescence intensity (a.u.).

How did the binding signal turn out when “CGCGACTGCTCCCGGCCTCATCCTCAATTTCACCTCGTGTCGGAGTCACCTAGTGCAG” was run?
Its binding signal is 10200 fluorescence intensity (a.u.).

“TCTAAATATAGTTCTGCACGTACGTATCGATCGATTGTTCCGGAGTCACCTAGTGCAG” was tested. Which binding signal did it give?
The binding signal was 11400 fluorescence intensity (a.u.).

With “TTTGCGTAATGCCTTGAGTTCATCTCACTTTCGATCTTTGCGGAGTCACCTAGTGCAG” as the sequence, how does the binding signal read?
The binding signal was 8990 fluorescence intensity (a.u.).

How did the binding signal turn out when “TGGCGAGCCCAGATCTGGCCCTGTTTTTTTTTTCTTTTTTCGGAGTCACCTAGTGCAG” was run?
Its binding signal is 9160 fluorescence intensity (a.u.).

For “GCCCCTCGTTTTGCGTTTTCTCTTTCTTTCTTTCGTTTTTCGGAGTCACCTAGTGCAG”, which binding signal is on record?
The binding signal was 11900 fluorescence intensity (a.u.).

With “GTCCACCTCGCGCCTCTCCAACGCCGCCGCCGCCGCCACCCGGAGTCACCTAGTGCAG” as the sequence, how does the binding signal read?
Its binding signal is 8770 fluorescence intensity (a.u.).

Which binding signal does the source give for “CAGTTTGACTGTTGACCCGTAGTTTTGTCACATGATGGATCGGAGTCACCTAGTGCAG” here?
The binding signal was 12600 fluorescence intensity (a.u.).

With “ACTAAGGCGCTATTCTCGCAAGTTTTTTGCACCACACGCTCGGAGTCACCTAGTGCAG” as the sequence, how does the binding signal read?
The binding signal was 8800 fluorescence intensity (a.u.).

Which binding signal does the source give for “AACCATGAGCTTCTCCCGTCCCTACAAGACACATCATCCACGGAGTCACCTAGTGCAG” here?
The binding signal was 8080 fluorescence intensity (a.u.).

“CCCCTTTCGCACTCGCACTCGCACTCGCACTACACCCACCCGGAGTCACCTAGTGCAG” was tested. Which binding signal did it give?
Its binding signal is 8370 fluorescence intensity (a.u.).

How did the binding signal turn out when “ACGTCATCGATCCGCGGCACCCCGCCTCCCACCAATCGCGCGGAGTCACCTAGTGCAG” was run?
The binding signal was 8830 fluorescence intensity (a.u.).

With “GTAAGACCTCACATAACACATGATTTTTCACAACCAATTTCGGAGTCACCTAGTGCAG” as the sequence, how does the binding signal read?
Its binding signal is 8620 fluorescence intensity (a.u.).

“ATCTTTTTTATTTTAACATATTTTCGGTTAAAAACTATTTCGGAGTCACCTAGTGCAG” was tested. Which binding signal did it give?
Its binding signal is 8040 fluorescence intensity (a.u.).
